Source: PubChem BioAssay AID602313 (National Center for Advancing Translational Sciences (NCATS), 2012)
About 760 (0.19%) of roughly 390,000 compounds were called active. The shares of active, inactive and inconclusive entries below differ from those in the screen. Calls follow the shape of the dose curve; as a rule, active = well fitted inhibition curve with a large enough effect; inconclusive = small, poorly fitted or top-dose-only effect; inactive = flat fitted curve, though single readings scatter. Potencies beside an inconclusive call are fits to weak or partial responses and may not hold up.

Assay: qHTS for Inhibitors of Vif-A3F Interactions: qHTS; also: nearly all actives have a fitted effect of over 65% in size; as to activity, negative = active: % of control where 0% means no effect
Settings: HeLa A3F-eYFP + Vif (tagged APOBEC3F with the HIV-1 protein that degrades it), YFP fluorescence increase; series mostly up to 46.1 µM; activity, negative = active: at the top concentration
Outline: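 HeLa cells stably expressing Vif plus C-terminally eYFP-tagged A3F were seeded, incubated overnight at 37 deg C, dosed with compound, incubated overnight again at 37 deg C. Yellow fluorescence (Ex 488/Em 500-530) reported blocked Vif-mediated A3F-eYFP degradation.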
Potency is read from the fitted curve at half-maximal effect.

| Structure (SMILES) | activity, negative = active | Potency |
| --- | --- | --- |
| COC(=O)CC(NC(=S)NC(=O)c1ccccc1)c1ccc(Br)cc1 (stereo unspecified) | inactive: -4.47% |  |
| CCOc1ccc(CNC(=O)C2CCN(c3nc4ccccc4nc3C(F)(F)F)CC2)cc1OC | inactive: 2.52% |  |
| NS(=O)(=O)c1ccc(N=Nc2c(O)[nH]c3ccc(Br)cc23)cc1 |  | inconclusive: 35.5 µM [inhibitor, single point] |
| CNC(=O)Cc1csc2ccc(C)cc12 |  | inconclusive: 0.562 µM [inhibitor, full curve, poor fit] |
| Cc1nn2c(-c3ccc(Cl)cc3)ccnc2c1-c1ccccc1 |  | inconclusive: 35.5 µM [inhibitor, single point] |
| COCC(C)n1c(SC(C)C(=O)NC2CCCCC2C)nc2ccccc2c1=O (stereo unspecified) | inactive: -25.7% |  |
| COc1ccc(-c2nc3sc(CCNC(=O)Cc4ccccc4)c(C)n3n2)cc1 | inactive: -3.96% |  |
| CC1CCCN(C(=S)SCC(=O)c2cc(Br)cc(Br)c2O)C1 (stereo unspecified) |  | inconclusive: 35.5 µM [inhibitor, single point] |
| CCOc1cc(C2C(C#N)=C(N)OC(C)=C2C(C)=O)cc(Br)c1O (stereo unspecified) |  | inconclusive: 22.4 µM [inhibitor, single point] |
| C=CCNC(=O)/C(C#N)=C/c1c(N2CCN(c3ccccc3)CC2)nc2c(C)cccn2c1=O |  | inconclusive: 28.2 µM [inhibitor, single point] |
| CC(C)Nc1nc(Cl)nc(NN(C)c2nc(N(C)C)nc(N(C)C)n2)n1 |  | inconclusive: 0.562 µM [inhibitor, full curve, poor fit] |
| CCN(CCCNC(=O)c1cc2c(=O)n(CC)c3ccccc3c2s1)Cc1ccccc1 |  | inconclusive: 35.5 µM [inhibitor, single point] |
| Cc1ccc(-c2nnn3c2nc(NC2CCC(C)CC2)c2ccccc23)cc1 (stereo unspecified) | inactive: -5.55% |  |
| CC(=O)c1ccc(NCC2COc3ccccc3O2)c([N+](=O)[O-])c1 (stereo unspecified) |  | inconclusive: 22.4 µM [inhibitor, single point] |
| CC(CCc1ccc(O)cc1)NCc1ccc(Br)cc1 (stereo unspecified) | inactive: 7.48% |  |
| O=C(Nc1ccc(Nc2ccccc2)cc1)c1ccc(Cl)cc1 | inactive: 7.05% |  |
| Cc1cccc(C)c1NC(=S)N(CCN(C)C)C(C)c1cccnc1 (stereo unspecified) |  | inconclusive: 5.01 µM [inhibitor, single point] |
| CC(C)(C)Cc1c(-c2ccc(Br)cc2)nc2ccc(Br)cn12 |  | inconclusive: 20 µM [inhibitor, partial curve, poor fit] |
| CCCn1c(=O)[nH]c(=O)c2c(C(=O)OCC)cc(-c3cccs3)nc21 |  | inconclusive: 35.5 µM [inhibitor, single point] |
| CCCCCCCCC(=O)c1c(OC)oc(C=O)cc1=O |  | inconclusive: 35.5 µM [inhibitor, single point] |
| CCCCS(=O)(=O)Nc1ccc2c(c1)ncn2C1CCCCC1 | inactive: 6.23% |  |

Sorted by count of non-hydrogen atoms (smallest number first): part of the list above.

| Structure (SMILES) | activity, negative = active | Potency |
| --- | --- | --- |
| CC1CCCN(C(=S)SCC(=O)c2cc(Br)cc(Br)c2O)C1 (stereo unspecified) |  | inconclusive: 35.5 µM [inhibitor, single point] |
| Cc1nn2c(-c3ccc(Cl)cc3)ccnc2c1-c1ccccc1 |  | inconclusive: 35.5 µM [inhibitor, single point] |
| C=CCNC(=O)/C(C#N)=C/c1c(N2CCN(c3ccccc3)CC2)nc2c(C)cccn2c1=O |  | inconclusive: 28.2 µM [inhibitor, single point] |

Continued.

| Structure (SMILES) | activity, negative = active | Potency |
| --- | --- | --- |
| CC(C)NC(=S)N/N=C/c1cccs1 | inactive: 4.47% |  |
| Cc1ccc(-c2cn3c(n2)sc2cc(C(=O)NC4CCCc5ccccc54)ccc23)cc1 (stereo unspecified) |  | inconclusive: 3.55 µM [inhibitor, partial curve, poor fit] |
| CCOc1ccc2cc(C3CC(c4ccco4)=NN3S(C)(=O)=O)c(Cl)nc2c1 (stereo unspecified) | inactive: -10.3% |  |
| Cc1noc(C)c1COc1cccc(C(=O)OCC(=O)N2CC(=O)Nc3ccccc32)c1 | inactive: -1.77% |  |
| COC(=O)C1OC(OC2CC[C@]3(C)C(CC[C@@]4(C)[C@@H]3CC=C3[C@@H]5CC(C)(C)CC[C@]5(C(=O)OC5OC(CO)C(O)C(O)C5O)CC[C@]34C)C2(C)C)C(O)C(O)C1O[C@H]1OCC(O)C(O)C1O (stereo partly specified) |  | inconclusive: 35.5 µM [inhibitor, single point] |
| CN(CC(=O)Nc1ccc(Cl)cc1F)C1CCS(=O)(=O)C1 (stereo unspecified) |  | inconclusive: 35.5 µM [inhibitor, single point] |
| O=C(Nc1cc(-c2nc3ccccc3o2)ccc1Cl)c1ccc(Br)o1 |  | inconclusive: 7.08 µM [inhibitor, partial curve, poor fit] |
| CCOc1ccc(C(=O)NNC(=O)CCNC(=O)c2ccco2)cc1OC |  | inconclusive: 31.6 µM [inhibitor, single point] |
| CN(C)c1cccc(C(=O)OCC(=O)c2ccc[nH]2)c1 |  | inconclusive: 35.5 µM [inhibitor, single point] |
| COCCCNCCOc1ccccc1-c1ccccc1 |  | inconclusive: 35.5 µM [inhibitor, single point] |
| COc1ccc(CCNC(=O)CCCNC(=O)Cn2cnc3sc(C)c(C)c3c2=O)cc1OC |  | inconclusive: 6.31 µM [inhibitor, single point] |
| CCOC(=O)c1c(C)[nH]c(C(=O)OCC(=O)N(CC(C)C)c2c(N)n(Cc3ccccc3)c(=O)[nH]c2=O)c1C |  | inconclusive: 31.6 µM [inhibitor, single point] |
| CC1(c2ccc(OC(F)F)cc2)NC(=O)N(CC(=O)Nc2ccc(F)cc2)C1=O (stereo unspecified) |  | inconclusive: 35.5 µM [inhibitor, single point] |
| Cc1cccc(C(=O)NCC(=O)NCC2COc3ccccc3O2)c1 (stereo unspecified) |  | inconclusive: 1.78 µM [inhibitor, partial curve, poor fit] |
| O=C(O)C1=C(C(=O)Nc2cc(C(F)(F)F)ccc2Cl)CCCC1 |  | inconclusive: 6.31 µM [inhibitor, single point] |
| O=C(OCc1cccc(C(F)(F)F)c1)c1cc(S(=O)(=O)N2CCOCC2)ccc1F |  | inconclusive: 10 µM [inhibitor, partial curve] |
| COC(=O)C1=C(C)N(Cc2ccc(OC)cc2)C(=O)/C1=C\c1ccco1 | inactive: -21.3% |  |
| N#Cc1ccccc1S(=O)(=O)N1CCN(C(=O)c2ccc(-n3cncn3)c([N+](=O)[O-])c2)CC1 |  | inconclusive: 7.08 µM [inhibitor, full curve] |
| COc1ccc(Nc2nc3ccc(Cl)cc3n3nnnc23)cc1OC |  | inconclusive: 28.2 µM [inhibitor, partial curve, poor fit] |
| COCOCCn1cc(CN2CCS(=O)(=O)N(Cc3ccc(-c4ccc(C)cc4)cc3)C(CC(C)C)C2=O)nn1 (stereo unspecified) |  | inconclusive: 3.55 µM [inhibitor, partial curve, poor fit] |
